Reference: PubChem BioAssay AID504808 (Drosophila RNAi Screening Center, 2011)

- Test: 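Genes whose loss lifts activity of an E2F-responsive reporter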 (primary screen)
- Cell system: Drosophila S2 cells
- Reagents: long dsRNA against Drosophila genes
- Read-out: 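Dual luciferase plate measurements; E2F-specific signal taken as firefly over Renilla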
- Reading the numbers: E2F firefly: higher = more E2F reporter activity; Renilla normaliser: higher = more normaliser reporter signal
- Hit rule: 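a knock-down counted as active when the firefly/Renilla E2F signal rose above 50%, a threshold chosen arbitrarily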
The screen tested about 21,000 reagents; shown is a random part of those that have a named target and a result. Of all reagents, 18 (0.084%) are marked active. 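Raw counts without plate normalisation, one of two replicates; the ratio scores behind the calls were not deposited.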 A number with no mark means an inactive call. Reagent sequences are not shown. Not given: the amount of reagent, the time to read-out.

gene knocked down	E2F firefly, rep 1	Renilla normaliser, rep 1
SmF	66033	4219
CG31468	78106	2080
CG3906	72335	3312
kek1	92323	4187
CG13284	1.17e5	4841
CG13989	1.48e5	4915
Cht4	92997	3631
CG11247	65009	3023
CG32055	89929	3703
CG10527	64707	3036
Regnase-1	71943	3425
CkIIbeta	82184	5705

6 entries already listed, ordered by “E2F firefly, rep 1”, ascending:
gene knocked down	E2F firefly, rep 1	Renilla normaliser, rep 1
CG3906	72335	3312
CG31468	78106	2080
kek1	92323	4187
Cht4	92997	3631
CG13284	1.17e5	4841
CG13989	1.48e5	4915

Continued.
gene knocked down	E2F firefly, rep 1	Renilla normaliser, rep 1
CG10472	75244	3990
CG3149	7447	748
AANATL6	1.45e5	5074
CG15337	1.16e5	5225
CG13042	1.69e5	8033
Sprn	1.34e5	7178
CG17075	84324	4082
Cul6	78527	3918
Alg10	1.46e5	7999
Gapdh2	1.56e5	7275
CG13449	1.73e5	7223
obst-B	76688	3387
Bug22	1.52e5	5370
CG4741	1.09e5	4283
CG18258	1.36e5	6921
CG12926	1.54e5	5097
pinta	83591	4013
CG10462	84742	257
Cpn	71174	3624
CG14655	54325	3990
Balat	3072	171
CG13384	1.01e5	3723
